This passage reports binding results from publication doi:10.1101/437814.

Results are given in words; binding and its absence hold for the method and conditions named. In cells and extracts the contact can be indirect. Some binding calls cover weakened binding; strength is not graded here.

This assay has as its target T1, Signal Transducer and Activator of Transcription 1 (human (endogenous in HEK293)), P42224.
T1 chain: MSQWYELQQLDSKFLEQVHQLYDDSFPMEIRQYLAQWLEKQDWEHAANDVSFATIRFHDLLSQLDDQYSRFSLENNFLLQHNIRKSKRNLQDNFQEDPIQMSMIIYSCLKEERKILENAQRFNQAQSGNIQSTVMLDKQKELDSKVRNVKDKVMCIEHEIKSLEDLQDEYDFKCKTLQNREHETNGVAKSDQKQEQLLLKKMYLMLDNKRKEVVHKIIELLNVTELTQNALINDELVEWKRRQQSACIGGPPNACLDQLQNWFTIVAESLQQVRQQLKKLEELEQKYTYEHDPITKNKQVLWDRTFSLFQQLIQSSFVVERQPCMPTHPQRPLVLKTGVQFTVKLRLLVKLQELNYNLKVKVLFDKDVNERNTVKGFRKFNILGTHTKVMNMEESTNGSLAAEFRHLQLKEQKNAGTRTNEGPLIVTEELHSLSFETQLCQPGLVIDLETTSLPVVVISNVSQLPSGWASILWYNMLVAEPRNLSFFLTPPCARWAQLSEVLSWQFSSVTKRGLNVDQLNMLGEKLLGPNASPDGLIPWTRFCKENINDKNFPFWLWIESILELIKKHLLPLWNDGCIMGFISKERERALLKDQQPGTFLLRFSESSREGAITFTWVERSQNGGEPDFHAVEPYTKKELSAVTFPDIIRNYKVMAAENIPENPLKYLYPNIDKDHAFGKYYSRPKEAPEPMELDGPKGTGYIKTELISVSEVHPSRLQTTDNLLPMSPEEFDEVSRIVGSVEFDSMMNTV
In words: cross-linking. To be noted: remark: other sources report otherwise.

B1: Signal Transducer and Activator of Transcription 1, P42224 1-750 (protein)
chain: MSQWYELQQLDSKFLEQVHQLYDDSFPMEIRQYLAQWLEKQDWEHAANDVSFATIRFHDLLSQLDDQYSRFSLENNFLLQHNIRKSKRNLQDNFQEDPIQMSMIIYSCLKEERKILENAQRFNQAQSGNIQSTVMLDKQKELDSKVRNVKDKVMCIEHEIKSLEDLQDEYDFKCKTLQNREHETNGVAKSDQKQEQLLLKKMYLMLDNKRKEVVHKIIELLNVTELTQNALINDELVEWKRRQQSACIGGPPNACLDQLQNWFTIVAESLQQVRQQLKKLEELEQKYTYEHDPITKNKQVLWDRTFSLFQQLIQSSFVVERQPCMPTHPQRPLVLKTGVQFTVKLRLLVKLQELNYNLKVKVLFDKDVNERNTVKGFRKFNILGTHTKVMNMEESTNGSLAAEFRHLQLKEQKNAGTRTNEGPLIVTEELHSLSFETQLCQPGLVIDLETTSLPVVVISNVSQLPSGWASILWYNMLVAEPRNLSFFLTPPCARWAQLSEVLSWQFSSVTKRGLNVDQLNMLGEKLLGPNASPDGLIPWTRFCKENINDKNFPFWLWIESILELIKKHLLPLWNDGCIMGFISKERERALLKDQQPGTFLLRFSESSREGAITFTWVERSQNGGEPDFHAVEPYTKKELSAVTFPDIIRNYKVMAAENIPENPLKYLYPNIDKDHAFGKYYSRPKEAPEPMELDGPKGTGYIKTELISVSEVHPSRLQTTDNLLPMSPEEFDEVSRIVGSVEFDSMMNTV
As to B1, the binding result is reported as “binds”.
